Test results taken from publication PMC11055877.
These are yes or no findings as the source states them, for the method shown. In cells and extracts the contact can be indirect. Some results given as binding are weak or reduced against the parent protein; the word gives no strength. Blank lines part the entries; values can stand above or below the binder they belong to.

Molecular target: E2F4 (human (endogenous in PDAC CSCs)), Q16254
Test: co-IP; nuclear and chromatin fractions of pancreatic CSCs (Nuclear Lysis Buffer: 50 mM Tris HCl pH 7.5, 100 mM NaCl, 50 mM KCl, 2 mM MgCl2, 1 mM EDTA, 10% glycerol, 0.3% Triton X-100; Benzonase); 5 µg cross-linked antibodies for 12 h at 4 °C; western blot; alternatively the nuclear complex co-IP kit (Active Motif)
Conditions: remark: other sources report otherwise

binding: binds
B1: RBL2, Q08999 1-1139 (protein)
chain: MPSGGDQSPPPPPPPPAAAASDEEEEDDGEAEDAAPPAESPTPQIQQRFDELCSRLNMDEAARAEAWDSYRSMSESYTLEGNDLHWLACALYVACRKSVPTVSKGTVEGNYVSLTRILKCSEQSLIEFFNKMKKWEDMANLPPHFRERTERLERNFTVSAVIFKKYEPIFQDIFKYPQEEQPRQQRGRKQRRQPCTVSEIFHFCWVLFIYAKGNFPMISDDLVNSYHLLLCALDLVYGNALQCSNRKELVNPNFKGLSEDFHAKDSKPSSDPPCIIEKLCSLHDGLVLEAKGIKEHFWKPYIRKLYEKKLLKGKEENLTGFLEPGNFGESFKAINKAYEEYVLSVGNLDERIFLGEDAEEEIGTLSRCLNAGSGTETAERVQMKNILQQHFDKSKALRISTPLTGVRYIKENSPCVTPVSTATHSLSRLHTMLTGLRNAPSEKLEQILRTCSRDPTQAIANRLKEMFEIYSQHFQPDEDFSNCAKEIASKHFRFAEMLYYKVLESVIEQEQKRLGDMDLSGILEQDAFHRSLLACCLEVVTFSYKPPGNFPFITEIFDVPLYHFYKVIEVFIRAEDGLCREVVKHLNQIEEQILDHLAWKPESPLWEKIRDNENRVPTCEEVMPPQNLERADEICIAGSPLTPRRVTEVRADTGGLGRSITSPTTLYDRYSSPPASTTRRRLFVENDSPSDGGTPGRMPPQPLVNAVPVQNVSGETVSVTPVPGQTLVTMATATVTANNGQTVTIPVQGIANENGGITFFPVQVNVGGQAQAVTGSIQPLSAQALAGSLSSQQVTGTTLQVPGQVAIQQISPGGQQQKQGQSVTSSSNRPRKTSSLSLFFRKVYHLAAVRLRDLCAKLDISDELRKKIWTCFEFSIIQCPELMMDRHLDQLLMCAIYVMAKVTKEDKSFQNIMRCYRTQPQARSQVYRSVLIKGKRKRRNSGSSDSRSHQNSPTELNKDRTSRDSSPVMRSSSTLPVPQPSSAPPTPTRLTGANSDMEEEERGDLIQFYNNIYIKQIKTFAMKYSQANMDAPPLSPYPFVRTGSPRRIQLSQNHPVYISPHKNETMLSPREKIFYYFSNSPSKRLREINSMIRTGETPTKKRGILLEDGSESPAKRICPENHSALLRRLQDVANDRGSH

binding: binds
B2: retinoblastoma protein pRb, P06400 1-928 (protein)
chain: MPPKTPRKTAATAAAAAAEPPAPPPPPPPEEDPEQDSGPEDLPLVRLEFEETEEPDFTALCQKLKIPDHVRERAWLTWEKVSSVDGVLGGYIQKKKELWGICIFIAAVDLDEMSFTFTELQKNIEISVHKFFNLLKEIDTSTKVDNAMSRLLKKYDVLFALFSKLERTCELIYLTQPSSSISTEINSALVLKVSWITFLLAKGEVLQMEDDLVISFQLMLCVLDYFIKLSPPMLLKEPYKTAVIPINGSPRTPRRGQNRSARIAKQLENDTRIIEVLCKEHECNIDEVKNVYFKNFIPFMNSLGLVTSNGLPEVENLSKRYEEIYLKNKDLDARLFLDHDKTLQTDSIDSFETQRTPRKSNLDEEVNVIPPHTPVRTVMNTIQQLMMILNSASDQPSENLISYFNNCTVNPKESILKRVKDIGYIFKEKFAKAVGQGCVEIGSQRYKLGVRLYYRVMESMLKSEEERLSIQNFSKLLNDNIFHMSLLACALEVVMATYSRSTSQNLDSGTDLSFPWILNVLNLKAFDFYKVIESFIKAEGNLTREMIKHLERCEHRIMESLAWLSDSPLFDLIKQSKDREGPTDHLESACPLNLPLQNNHTAADMYLSPVRSPKKKGSTTRVNSTANAETQATSAFQTQKPLKSTSLSLFYKKVYRLAYLRLNTLCERLLSEHPELEHIIWTLFQHTLQNEYELMRDRHLDQIMMCSMYGICKVKNIDLKFKIIVTAYKDLPHAVQETFKRVLIKEEEYDSIIVFYNSVFMQRLKTNILQYASTRPPTLSPIPHIPRSPYKFPSSPLRIPGGNIYISPLKSPYKISEGLPTPTKMTPRSRILVSIGESFGTSEKFQKINQMVCNSDRVLKRSAEGSNPPKPLKKLRFDIEGSDEADGSKHLPGESKFQQKLAEMTSTRTRMQKQKMNDSMDTSNKEEK
